No constants are given. Whether binding was seen depends on the method and setting. Some binding calls cover weakened binding; strength is not graded here. For some assays here: Where a sequence is shown, tags or fusion partners need not be part of it.
Key:
[1] = biological target: T1, reduced GST-DksA (Salmonella enterica serovar Typhimurium) (UniProt P0A1G5); experiment: pull-down; GST fusion (bait) on glutathione-Sepharose 4B beads, 50 mM Tris-HCl pH 7.5, 4°C, 2 h with C-terminally 6×His-tagged prey; wash 50 mM NaCl, elution 500 mM NaCl; anti-6×His immunoblot; both purified
T1 sequence: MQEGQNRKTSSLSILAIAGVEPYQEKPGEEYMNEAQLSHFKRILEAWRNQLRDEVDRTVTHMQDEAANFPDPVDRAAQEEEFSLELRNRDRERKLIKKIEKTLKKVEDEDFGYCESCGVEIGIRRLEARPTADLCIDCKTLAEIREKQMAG

Chains of the proteins cited; added tags and fusions are not shown.
UniProt Q56073: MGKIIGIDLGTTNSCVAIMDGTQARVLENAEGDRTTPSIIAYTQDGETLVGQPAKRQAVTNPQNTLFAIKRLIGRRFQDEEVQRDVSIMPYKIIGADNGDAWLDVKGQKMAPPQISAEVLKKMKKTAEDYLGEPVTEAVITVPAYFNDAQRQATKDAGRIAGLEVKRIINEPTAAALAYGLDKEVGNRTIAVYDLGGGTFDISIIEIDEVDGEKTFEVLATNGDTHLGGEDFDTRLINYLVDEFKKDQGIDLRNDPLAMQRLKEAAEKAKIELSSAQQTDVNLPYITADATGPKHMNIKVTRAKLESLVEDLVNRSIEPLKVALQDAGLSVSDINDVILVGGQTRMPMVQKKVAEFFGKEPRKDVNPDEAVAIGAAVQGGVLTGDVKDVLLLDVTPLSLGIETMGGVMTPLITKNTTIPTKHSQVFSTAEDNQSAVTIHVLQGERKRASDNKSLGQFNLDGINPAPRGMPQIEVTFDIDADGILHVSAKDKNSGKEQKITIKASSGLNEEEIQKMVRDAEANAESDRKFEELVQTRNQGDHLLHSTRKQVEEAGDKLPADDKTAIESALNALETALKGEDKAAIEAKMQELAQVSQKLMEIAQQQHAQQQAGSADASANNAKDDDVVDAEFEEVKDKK
UniProt P0A7Z7: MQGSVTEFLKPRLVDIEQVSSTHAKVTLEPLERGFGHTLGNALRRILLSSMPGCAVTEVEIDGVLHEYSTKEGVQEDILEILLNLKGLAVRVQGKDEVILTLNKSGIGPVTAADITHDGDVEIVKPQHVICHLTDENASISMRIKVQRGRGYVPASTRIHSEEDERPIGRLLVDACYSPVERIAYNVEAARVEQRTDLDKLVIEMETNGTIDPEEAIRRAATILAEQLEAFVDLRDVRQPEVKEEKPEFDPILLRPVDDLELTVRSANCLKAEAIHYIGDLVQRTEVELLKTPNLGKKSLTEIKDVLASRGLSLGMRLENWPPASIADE

[2] = biological target: T2, T18-DksA (Salmonella enterica serovar Typhimurium) (UniProt P0A1G5); experiment: two-hybrid; bacterial adenylate cyclase two-hybrid system (Euromedex), pKT25 and pUT18C fusions cotransformed into E. coli BTH101; β-galactosidase activity (Miller units) at stationary phase after 18 h at 30°C
T2 sequence: T1 sequence

Row | binding [1] | binding [2] | Substance
1 | no binding | – | DnaK-6×His (from UniProt Q56073 1-638)
2 | – | binds | T25-RpoA (from UniProt P0A7Z7 1-329)
